Measured values taken from paper PMC11753375.
No constants are given. Whether binding was seen depends on the method and setting. Binding seen in cells or lysates may run through a third protein. Some binding calls cover weakened binding; strength is not graded here.

Sequences of proteins named here, by UniProt entry; tags and fusion partners are left off. A change or cut given only in a name is not applied to a line headed by its entry. A line that says so, or that is headed by a name, gives the form on record, which may keep a tag or linker.
UniProt P45974: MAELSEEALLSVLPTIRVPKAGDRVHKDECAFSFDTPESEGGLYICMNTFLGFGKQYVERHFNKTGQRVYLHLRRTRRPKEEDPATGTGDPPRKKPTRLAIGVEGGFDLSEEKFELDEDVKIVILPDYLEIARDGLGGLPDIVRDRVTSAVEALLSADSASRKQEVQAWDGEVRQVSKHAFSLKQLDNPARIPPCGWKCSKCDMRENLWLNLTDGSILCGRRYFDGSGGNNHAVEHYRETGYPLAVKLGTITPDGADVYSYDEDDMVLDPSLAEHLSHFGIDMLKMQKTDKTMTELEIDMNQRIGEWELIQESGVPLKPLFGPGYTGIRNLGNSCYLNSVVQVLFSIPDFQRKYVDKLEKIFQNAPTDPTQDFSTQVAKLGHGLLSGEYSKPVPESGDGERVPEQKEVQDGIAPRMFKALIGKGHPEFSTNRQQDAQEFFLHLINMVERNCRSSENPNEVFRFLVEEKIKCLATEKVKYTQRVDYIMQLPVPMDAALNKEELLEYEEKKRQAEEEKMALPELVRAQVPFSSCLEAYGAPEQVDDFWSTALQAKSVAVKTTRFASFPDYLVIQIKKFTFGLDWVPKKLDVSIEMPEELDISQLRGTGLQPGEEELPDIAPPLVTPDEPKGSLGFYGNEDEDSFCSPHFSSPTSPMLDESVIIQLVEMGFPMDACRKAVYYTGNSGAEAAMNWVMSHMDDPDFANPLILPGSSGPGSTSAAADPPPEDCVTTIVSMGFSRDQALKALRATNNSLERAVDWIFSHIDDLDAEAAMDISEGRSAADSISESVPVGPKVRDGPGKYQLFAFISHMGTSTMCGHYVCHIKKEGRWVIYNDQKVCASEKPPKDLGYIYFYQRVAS
hsUSP5^short-GFP (P45974, form named): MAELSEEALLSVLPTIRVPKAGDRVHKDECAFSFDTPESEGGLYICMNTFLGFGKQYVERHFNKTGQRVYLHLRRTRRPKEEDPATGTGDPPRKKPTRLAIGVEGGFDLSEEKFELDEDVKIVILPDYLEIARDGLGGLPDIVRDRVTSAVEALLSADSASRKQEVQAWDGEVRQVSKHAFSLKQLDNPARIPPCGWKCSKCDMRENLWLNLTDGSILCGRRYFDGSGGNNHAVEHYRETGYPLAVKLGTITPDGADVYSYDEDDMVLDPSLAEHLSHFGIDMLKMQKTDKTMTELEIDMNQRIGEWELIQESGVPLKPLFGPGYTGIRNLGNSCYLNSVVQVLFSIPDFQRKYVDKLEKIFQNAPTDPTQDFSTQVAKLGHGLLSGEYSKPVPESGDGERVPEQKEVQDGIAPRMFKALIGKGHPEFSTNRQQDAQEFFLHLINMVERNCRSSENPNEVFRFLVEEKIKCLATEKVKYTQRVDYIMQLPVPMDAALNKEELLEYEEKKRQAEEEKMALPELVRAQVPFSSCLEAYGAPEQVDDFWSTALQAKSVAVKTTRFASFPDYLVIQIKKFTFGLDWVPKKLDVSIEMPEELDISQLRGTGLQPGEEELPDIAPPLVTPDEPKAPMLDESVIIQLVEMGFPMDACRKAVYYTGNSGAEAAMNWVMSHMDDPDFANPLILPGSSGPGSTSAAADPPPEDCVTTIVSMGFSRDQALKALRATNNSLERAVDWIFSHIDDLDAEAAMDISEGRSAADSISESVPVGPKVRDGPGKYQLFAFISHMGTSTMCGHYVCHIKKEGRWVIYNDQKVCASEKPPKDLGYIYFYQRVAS
UniProt Q9UBN7: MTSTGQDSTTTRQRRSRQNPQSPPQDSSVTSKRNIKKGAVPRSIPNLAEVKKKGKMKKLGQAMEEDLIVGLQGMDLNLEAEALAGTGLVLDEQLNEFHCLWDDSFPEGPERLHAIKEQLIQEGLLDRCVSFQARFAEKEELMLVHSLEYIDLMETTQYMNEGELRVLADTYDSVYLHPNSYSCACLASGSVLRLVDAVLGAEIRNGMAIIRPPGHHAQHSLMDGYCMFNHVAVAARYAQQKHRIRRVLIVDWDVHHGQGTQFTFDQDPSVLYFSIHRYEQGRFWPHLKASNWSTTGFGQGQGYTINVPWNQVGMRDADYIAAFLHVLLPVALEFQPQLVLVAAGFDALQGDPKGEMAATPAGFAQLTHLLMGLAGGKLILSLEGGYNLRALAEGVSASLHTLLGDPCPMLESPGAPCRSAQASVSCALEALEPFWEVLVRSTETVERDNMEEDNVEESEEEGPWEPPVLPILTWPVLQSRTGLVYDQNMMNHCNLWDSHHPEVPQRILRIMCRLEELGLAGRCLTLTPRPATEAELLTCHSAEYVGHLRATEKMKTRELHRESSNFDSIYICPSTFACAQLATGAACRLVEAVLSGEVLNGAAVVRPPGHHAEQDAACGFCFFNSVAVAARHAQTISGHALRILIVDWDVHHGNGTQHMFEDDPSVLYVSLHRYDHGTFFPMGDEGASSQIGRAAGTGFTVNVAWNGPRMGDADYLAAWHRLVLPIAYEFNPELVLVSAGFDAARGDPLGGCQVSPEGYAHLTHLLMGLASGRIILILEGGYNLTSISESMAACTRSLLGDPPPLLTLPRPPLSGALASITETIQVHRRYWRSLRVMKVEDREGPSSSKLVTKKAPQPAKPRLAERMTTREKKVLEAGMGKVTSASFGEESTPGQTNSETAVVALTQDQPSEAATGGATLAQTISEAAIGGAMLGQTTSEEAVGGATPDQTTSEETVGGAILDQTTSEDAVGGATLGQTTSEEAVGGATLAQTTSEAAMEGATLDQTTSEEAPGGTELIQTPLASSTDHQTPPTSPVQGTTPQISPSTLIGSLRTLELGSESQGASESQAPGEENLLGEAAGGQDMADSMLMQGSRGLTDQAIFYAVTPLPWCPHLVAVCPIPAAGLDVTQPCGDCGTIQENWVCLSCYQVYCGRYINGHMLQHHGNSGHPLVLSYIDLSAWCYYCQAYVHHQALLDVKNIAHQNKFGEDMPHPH

Experiments:
hsUSP5^short-GFP (human) = hsUSP5^short-GFP (human) (UniProt P45974); test: co-IP; fig. S2H; the set-up of this panel is not told in the text shown; by the methods GFP-tagged hsUSP5 variants were precipitated from HEK293 RIPA lysate with anti-GFP and protein G-Sepharose
hsUSP5^long-GFP (human) = hsUSP5^long-GFP (human) (UniProt P45974); test: as above

binding (hsUSP5^short-GFP (human)): binds
binding (hsUSP5^long-GFP (human)): binds
Substance: HDAC6 (fig. S2H) (from UniProt Q9UBN7 1-1215) (enzyme)
